Source: article PMC3984077
Results are given in words; binding and its absence hold for the method and conditions named.

Target: T1, HasSCTD, the last 78 residues of the antisigma factor HasS of Serratia marcescens (Serratia marcescens) (UniProt Q79AD3)
T1 sequence: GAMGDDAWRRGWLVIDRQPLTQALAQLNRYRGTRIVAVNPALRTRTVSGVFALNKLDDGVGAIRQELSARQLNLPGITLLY
Test: AUC; sedimentation velocity, 20°C, 42 000 rpm, HasSCTD at 86 µM and 14 µM in buffer with detergent, c(S) model; both purified

binding: no binding (tested: 86 µM and 14 µM)
Substance: HasSCTD, the last 78 residues of the antisigma factor HasS of Serratia marcescens (from UniProt Q79AD3 240-317) (domain or fragment)
